# Reference: the supplement of paper PMC6411743
# Chains of the proteins cited; added tags and fusions are not shown. Lines headed by an entry give the natural chain unless they say otherwise; changes in a name come on top.
# UniProt P51665: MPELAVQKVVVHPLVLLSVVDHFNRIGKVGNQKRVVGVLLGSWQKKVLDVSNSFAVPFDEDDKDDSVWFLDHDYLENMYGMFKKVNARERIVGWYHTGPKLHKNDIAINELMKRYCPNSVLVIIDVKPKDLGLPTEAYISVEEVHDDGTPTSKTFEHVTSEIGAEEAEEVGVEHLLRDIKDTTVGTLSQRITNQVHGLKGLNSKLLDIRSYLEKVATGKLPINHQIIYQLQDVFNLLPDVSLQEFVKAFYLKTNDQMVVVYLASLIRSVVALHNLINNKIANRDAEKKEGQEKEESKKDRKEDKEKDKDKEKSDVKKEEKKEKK
# UniProt P61201: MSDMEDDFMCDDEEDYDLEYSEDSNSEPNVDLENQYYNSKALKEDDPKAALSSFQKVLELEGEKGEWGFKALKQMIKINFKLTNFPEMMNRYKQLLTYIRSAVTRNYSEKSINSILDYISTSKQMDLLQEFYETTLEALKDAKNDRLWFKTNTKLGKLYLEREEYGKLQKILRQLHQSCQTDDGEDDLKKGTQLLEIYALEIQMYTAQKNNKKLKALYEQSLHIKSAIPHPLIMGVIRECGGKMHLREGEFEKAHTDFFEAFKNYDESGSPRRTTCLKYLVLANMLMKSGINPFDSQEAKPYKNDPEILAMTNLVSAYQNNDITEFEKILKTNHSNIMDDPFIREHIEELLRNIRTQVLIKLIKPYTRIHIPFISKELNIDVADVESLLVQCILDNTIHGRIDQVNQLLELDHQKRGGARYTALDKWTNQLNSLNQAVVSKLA
# UniProt P62879, whole entry: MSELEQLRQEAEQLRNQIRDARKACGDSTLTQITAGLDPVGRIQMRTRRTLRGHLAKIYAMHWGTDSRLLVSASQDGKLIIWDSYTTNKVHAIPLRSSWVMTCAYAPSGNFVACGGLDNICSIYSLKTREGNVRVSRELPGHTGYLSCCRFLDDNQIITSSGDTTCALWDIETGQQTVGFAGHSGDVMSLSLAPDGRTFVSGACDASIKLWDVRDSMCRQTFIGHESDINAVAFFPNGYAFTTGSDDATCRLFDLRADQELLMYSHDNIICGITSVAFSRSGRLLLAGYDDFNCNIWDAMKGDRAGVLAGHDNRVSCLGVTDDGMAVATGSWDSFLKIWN
# UniProt P61244, whole entry: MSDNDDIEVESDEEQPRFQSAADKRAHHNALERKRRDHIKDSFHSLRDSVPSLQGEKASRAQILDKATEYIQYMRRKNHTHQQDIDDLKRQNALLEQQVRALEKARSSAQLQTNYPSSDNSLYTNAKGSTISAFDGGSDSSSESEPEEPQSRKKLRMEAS
# UniProt P56524: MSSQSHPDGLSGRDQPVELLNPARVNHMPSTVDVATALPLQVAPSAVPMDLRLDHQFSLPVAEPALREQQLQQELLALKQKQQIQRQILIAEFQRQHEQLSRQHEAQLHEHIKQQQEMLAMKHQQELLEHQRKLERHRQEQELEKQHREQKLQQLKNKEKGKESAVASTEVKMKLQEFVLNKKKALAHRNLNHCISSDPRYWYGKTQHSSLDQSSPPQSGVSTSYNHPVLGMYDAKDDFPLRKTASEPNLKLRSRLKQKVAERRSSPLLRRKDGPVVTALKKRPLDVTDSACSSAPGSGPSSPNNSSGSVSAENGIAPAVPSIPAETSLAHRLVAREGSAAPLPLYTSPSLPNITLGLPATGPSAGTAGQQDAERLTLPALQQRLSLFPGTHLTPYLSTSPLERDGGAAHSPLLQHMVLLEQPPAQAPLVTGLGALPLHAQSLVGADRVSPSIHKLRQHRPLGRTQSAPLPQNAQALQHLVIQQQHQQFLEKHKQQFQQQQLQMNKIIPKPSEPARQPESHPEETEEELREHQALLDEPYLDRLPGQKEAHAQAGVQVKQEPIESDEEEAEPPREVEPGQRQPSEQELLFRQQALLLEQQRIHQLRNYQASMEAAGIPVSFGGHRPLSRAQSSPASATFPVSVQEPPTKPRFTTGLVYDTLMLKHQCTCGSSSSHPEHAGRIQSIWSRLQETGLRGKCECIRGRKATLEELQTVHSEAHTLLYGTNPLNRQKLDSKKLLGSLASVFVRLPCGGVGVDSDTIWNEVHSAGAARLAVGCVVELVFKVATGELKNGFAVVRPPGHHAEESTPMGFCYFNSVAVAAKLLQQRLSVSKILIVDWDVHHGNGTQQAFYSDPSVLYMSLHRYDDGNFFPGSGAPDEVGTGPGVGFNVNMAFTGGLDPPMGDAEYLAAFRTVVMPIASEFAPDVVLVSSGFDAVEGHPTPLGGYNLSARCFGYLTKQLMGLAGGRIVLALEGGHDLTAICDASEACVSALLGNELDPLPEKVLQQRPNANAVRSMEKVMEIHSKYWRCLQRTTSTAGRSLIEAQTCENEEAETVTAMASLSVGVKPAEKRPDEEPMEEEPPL
# ± gives the standard deviation of the averaged measurements. Some of the results follow.
# Compound: Nc1nc2c(ncn2[C@@H]2O[C@H](COP(=O)(O)OP(=O)(O)OP(=O)(O)O)[C@@H](O)[C@H]2O)c(=O)[nH]1 [guanosine triphosphate]
# Experiment: NP40-soluble protein abundance relative to vehicle (solubility fold change) (ratio); higher = more soluble protein in presence of GTP
# Outline: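 Jurkat crude lysate prepared with a Dounce homogeniser was treated at eight concentrations spanning 0.1 to 10 mM, 10 min at room temperature then 3 min at 37 °C. Solubilisation with 0.8% NP40 and benzonase and ultracentrifugation preceded TMT labelling of the supernatant for LC-MS/MS. Fold change against the detergent-processed vehicle was determined per replicate from vsn-normalised intensities, across three independent experiments.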
Target,NP40-soluble protein abundance (concentration: 0.1mM),NP40-soluble protein abundance (concentration: 0.5mM),NP40-soluble protein abundance (concentration: 1mM),NP40-soluble protein abundance (concentration: 2mM),NP40-soluble protein abundance (concentration: 4mM),NP40-soluble protein abundance (concentration: 6mM),NP40-soluble protein abundance (concentration: 8mM),NP40-soluble protein abundance (concentration: 10mM)
PSMD7 (UniProt P51665),0.976 ± 0.028,1.02 ± 0.041,0.981 ± 0.089,1 ± 0.1,1.02 ± 0.11,1.06 ± 0.13,1.01 ± 0.1,0.965 ± 0.11
UniProt P61978-2|P61978-3|Q5T6W2,0.94 ± 0.032,0.94 ± 0.039,0.944 ± 0.041,0.899 ± 0.056,0.891 ± 0.056,0.919 ± 0.061,0.919 ± 0.049,0.897 ± 0.049
UniProt P61201 and related entries,0.983 ± 0.068,0.973 ± 0.06,0.995 ± 0.045,0.967 ± 0.058,0.986 ± 0.053,0.97 ± 0.07,0.999 ± 0.072,0.953 ± 0.059
UniProt P62879,0.978 ± 0.035,1.01 ± 0.064,0.917 ± 0.031,0.947 ± 0.074,0.924 ± 0.05,0.937 ± 0.054,0.913 ± 0.048,0.893 ± 0.09
UniProt P61244 and related entries,0.876 ± 0.046,0.744 ± 0.051,0.795 ± 0.049,0.809 ± 0.019,0.823 ± 0.053,0.822 ± 0.089,0.775 ± 0.07,0.911 ± 0.017
HDAC4 (UniProt P56524),0.991 ± 0.11,0.926 ± 0.07,0.972 ± 0.098,0.952 ± 0.069,0.975 ± 0.11,0.943 ± 0.1,0.988 ± 0.097,0.969 ± 0.075
UniProt P55327-2|P55327-4,0.898 ± 0.15,0.867 ± 0.13,1.01 ± 0.12,1.03 ± 0.051,1.04 ± 0.13,1 ± 0.093,0.8 ± 0.15,1.05 ± 0.062
